Experimental data: EP2177533A1 (TU München, priority 2008, dated 2010)
Strings that start with PEPTIDE1 are HELM notation: dots part the residues, brackets hold end groups and non-standard residues.

Assay: general procedure: Fmoc solid-phase peptide synthesis; Tritylchloride polystyrene TCP-resin (0.94 mmol/g); TBTU/HOBt/DIEA
Conditions: cyclisation step

Row | Substance | cyclisation yield
1 | PEPTIDE1{[MeAla].Y.[dW].K.V.F}$PEPTIDE1,PEPTIDE1,1:R1-6:R2$$$V2.0 | 83%
2 | PEPTIDE1{[meA].Y.[dW].[meK].V.F}$PEPTIDE1,PEPTIDE1,6:R2-1:R1$$$V2.0 | 71%
3 | PEPTIDE1{[meA].Y.[medW].[meK].V.F}$PEPTIDE1,PEPTIDE1,6:R2-1:R1$$$V2.0 | 68%
4 | PEPTIDE1{[meA].Y.[medW].[meK].V.[meF]}$PEPTIDE1,PEPTIDE1,6:R2-1:R1$$$V2.0 | 72%
